Reference: the supplement of paper PMC12067093, “Discovery and optimisation of a covalent ligand for TRIM25 and its application to targeted protein ubiquitination” (Chemical Science, 2025)
This is one part of the list.

By UniProt entry, the sequences of proteins in these tests, tags left out. Where a name states a change or a piece, a line headed by the entry shows the natural chain unless it says otherwise.
UniProt Q9H1A4, whole entry, looked up: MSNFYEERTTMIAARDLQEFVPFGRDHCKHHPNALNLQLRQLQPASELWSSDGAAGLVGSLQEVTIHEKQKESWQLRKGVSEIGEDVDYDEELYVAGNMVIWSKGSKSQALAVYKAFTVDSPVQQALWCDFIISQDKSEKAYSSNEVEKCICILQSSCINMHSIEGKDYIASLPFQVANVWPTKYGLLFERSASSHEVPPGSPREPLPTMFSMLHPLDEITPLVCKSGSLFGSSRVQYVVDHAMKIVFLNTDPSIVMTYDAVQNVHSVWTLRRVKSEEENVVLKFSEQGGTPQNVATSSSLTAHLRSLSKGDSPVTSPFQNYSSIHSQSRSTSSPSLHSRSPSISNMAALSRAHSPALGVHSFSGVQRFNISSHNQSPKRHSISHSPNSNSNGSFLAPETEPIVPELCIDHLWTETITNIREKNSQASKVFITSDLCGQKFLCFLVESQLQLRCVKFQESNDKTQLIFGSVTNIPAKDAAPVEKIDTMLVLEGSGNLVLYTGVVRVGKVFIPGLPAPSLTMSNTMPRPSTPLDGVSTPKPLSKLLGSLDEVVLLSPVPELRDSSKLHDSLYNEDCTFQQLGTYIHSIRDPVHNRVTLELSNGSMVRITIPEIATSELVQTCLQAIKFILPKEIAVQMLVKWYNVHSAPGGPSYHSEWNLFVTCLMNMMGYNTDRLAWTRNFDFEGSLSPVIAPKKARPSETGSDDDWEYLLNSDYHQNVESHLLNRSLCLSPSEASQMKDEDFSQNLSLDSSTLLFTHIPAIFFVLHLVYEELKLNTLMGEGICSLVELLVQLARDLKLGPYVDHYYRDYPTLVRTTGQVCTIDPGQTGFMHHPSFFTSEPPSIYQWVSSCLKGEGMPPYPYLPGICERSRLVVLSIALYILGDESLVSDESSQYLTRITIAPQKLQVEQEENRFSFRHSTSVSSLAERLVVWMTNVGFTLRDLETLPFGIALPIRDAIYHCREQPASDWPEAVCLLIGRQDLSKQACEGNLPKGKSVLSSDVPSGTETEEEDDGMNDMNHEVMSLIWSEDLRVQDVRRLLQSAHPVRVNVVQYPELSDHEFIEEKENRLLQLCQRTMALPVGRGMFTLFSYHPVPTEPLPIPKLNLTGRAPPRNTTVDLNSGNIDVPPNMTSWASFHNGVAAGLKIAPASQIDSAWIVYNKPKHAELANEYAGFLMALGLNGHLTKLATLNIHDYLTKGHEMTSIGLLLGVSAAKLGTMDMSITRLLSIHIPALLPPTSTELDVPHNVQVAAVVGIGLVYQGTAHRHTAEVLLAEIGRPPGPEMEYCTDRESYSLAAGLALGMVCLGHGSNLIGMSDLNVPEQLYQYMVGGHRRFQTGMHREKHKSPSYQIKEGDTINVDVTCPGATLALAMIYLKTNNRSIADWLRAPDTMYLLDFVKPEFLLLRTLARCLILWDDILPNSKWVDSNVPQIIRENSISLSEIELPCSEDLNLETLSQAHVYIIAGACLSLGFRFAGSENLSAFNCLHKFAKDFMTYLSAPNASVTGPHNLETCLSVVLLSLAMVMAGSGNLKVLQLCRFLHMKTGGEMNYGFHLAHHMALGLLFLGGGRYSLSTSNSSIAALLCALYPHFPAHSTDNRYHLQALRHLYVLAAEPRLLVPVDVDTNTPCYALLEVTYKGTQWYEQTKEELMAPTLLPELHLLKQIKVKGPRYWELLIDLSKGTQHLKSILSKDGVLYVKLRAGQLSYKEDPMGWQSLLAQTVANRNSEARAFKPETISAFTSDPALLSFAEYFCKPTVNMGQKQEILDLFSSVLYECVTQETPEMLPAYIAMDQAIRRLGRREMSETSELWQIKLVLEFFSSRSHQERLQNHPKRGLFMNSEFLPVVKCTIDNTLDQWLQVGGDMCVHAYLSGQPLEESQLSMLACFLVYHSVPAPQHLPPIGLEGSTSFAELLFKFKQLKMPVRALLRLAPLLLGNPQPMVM
UniProt P04075: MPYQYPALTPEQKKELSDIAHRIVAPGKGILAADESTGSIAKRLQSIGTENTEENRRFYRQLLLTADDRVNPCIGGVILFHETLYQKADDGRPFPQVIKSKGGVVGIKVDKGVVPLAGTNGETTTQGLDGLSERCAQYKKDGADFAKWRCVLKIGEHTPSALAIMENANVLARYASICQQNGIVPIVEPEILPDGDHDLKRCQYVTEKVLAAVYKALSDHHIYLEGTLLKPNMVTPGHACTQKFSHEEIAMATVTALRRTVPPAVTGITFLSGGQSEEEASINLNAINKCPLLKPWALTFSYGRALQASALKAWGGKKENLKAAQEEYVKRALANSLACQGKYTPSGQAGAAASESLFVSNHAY
UniProt P09917: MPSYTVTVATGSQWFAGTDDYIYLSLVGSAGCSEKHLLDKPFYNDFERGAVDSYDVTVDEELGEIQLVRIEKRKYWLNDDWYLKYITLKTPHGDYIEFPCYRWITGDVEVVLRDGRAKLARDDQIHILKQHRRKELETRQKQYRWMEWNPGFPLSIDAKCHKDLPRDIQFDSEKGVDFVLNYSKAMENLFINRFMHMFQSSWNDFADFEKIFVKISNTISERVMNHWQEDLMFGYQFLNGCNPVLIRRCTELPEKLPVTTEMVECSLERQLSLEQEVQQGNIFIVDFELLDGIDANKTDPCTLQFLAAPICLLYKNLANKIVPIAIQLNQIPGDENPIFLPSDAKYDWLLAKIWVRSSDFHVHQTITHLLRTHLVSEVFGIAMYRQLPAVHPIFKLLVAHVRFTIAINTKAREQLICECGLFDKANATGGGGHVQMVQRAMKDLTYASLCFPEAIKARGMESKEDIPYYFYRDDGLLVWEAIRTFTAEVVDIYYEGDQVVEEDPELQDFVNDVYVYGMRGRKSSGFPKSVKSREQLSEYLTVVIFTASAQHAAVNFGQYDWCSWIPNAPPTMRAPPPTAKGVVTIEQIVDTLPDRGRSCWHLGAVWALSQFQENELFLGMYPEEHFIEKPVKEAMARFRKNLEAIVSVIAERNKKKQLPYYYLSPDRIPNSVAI
UniProt Q9NXW9: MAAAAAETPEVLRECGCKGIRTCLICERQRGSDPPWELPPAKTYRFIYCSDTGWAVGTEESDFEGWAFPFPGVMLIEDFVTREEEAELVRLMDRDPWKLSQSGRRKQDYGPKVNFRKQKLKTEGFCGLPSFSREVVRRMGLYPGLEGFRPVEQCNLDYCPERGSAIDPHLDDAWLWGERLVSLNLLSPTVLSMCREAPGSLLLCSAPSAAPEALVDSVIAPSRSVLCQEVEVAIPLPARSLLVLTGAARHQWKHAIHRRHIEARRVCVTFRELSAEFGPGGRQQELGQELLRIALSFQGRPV
UniProt Q9P2R3: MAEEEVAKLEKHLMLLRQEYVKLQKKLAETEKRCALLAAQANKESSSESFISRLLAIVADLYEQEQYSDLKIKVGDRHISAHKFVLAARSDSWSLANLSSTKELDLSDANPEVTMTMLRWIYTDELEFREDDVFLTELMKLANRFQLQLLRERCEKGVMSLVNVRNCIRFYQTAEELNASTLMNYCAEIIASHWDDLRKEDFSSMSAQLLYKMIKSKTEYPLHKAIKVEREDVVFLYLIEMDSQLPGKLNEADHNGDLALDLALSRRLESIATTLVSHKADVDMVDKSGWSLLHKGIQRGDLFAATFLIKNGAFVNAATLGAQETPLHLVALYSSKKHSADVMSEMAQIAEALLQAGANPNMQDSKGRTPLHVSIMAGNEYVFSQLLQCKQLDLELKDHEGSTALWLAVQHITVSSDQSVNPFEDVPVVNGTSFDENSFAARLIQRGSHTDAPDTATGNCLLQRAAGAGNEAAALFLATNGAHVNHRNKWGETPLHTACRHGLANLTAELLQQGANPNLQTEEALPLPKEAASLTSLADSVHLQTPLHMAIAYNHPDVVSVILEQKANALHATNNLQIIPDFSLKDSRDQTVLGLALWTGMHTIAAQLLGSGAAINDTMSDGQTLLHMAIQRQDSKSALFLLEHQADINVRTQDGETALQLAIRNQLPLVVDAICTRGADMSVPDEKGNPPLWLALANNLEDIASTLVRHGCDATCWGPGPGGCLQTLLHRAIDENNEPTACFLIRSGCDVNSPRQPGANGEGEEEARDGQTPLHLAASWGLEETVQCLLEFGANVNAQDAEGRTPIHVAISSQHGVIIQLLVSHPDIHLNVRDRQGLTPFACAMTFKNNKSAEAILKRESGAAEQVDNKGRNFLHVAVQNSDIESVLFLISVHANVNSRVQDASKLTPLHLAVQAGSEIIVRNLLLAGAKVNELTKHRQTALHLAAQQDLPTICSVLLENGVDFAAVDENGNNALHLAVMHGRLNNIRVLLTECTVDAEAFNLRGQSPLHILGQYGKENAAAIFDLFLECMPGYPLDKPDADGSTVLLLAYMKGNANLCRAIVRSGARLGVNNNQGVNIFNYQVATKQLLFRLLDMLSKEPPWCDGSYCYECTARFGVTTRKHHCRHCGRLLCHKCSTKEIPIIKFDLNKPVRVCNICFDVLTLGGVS
UniProt P54886: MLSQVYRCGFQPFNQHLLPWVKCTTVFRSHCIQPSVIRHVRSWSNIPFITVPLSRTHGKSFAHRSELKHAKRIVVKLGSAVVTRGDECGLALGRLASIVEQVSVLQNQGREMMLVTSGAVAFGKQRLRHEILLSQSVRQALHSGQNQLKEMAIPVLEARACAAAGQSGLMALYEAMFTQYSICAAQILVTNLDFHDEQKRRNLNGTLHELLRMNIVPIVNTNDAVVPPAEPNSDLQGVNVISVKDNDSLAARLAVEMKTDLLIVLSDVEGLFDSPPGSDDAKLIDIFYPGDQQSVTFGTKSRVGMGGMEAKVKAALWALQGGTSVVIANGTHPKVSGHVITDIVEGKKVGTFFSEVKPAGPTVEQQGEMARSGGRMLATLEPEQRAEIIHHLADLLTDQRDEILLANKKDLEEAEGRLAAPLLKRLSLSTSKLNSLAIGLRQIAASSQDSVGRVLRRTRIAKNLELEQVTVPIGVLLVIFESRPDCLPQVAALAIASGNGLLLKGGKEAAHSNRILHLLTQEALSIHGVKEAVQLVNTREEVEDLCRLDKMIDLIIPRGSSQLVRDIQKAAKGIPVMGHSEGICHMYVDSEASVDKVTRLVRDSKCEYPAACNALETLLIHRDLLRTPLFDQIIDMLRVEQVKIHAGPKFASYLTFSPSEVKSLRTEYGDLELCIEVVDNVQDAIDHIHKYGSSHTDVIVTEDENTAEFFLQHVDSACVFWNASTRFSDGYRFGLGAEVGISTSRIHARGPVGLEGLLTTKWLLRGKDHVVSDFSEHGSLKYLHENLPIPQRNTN
UniProt Q9Y3D8, whole entry, looked up: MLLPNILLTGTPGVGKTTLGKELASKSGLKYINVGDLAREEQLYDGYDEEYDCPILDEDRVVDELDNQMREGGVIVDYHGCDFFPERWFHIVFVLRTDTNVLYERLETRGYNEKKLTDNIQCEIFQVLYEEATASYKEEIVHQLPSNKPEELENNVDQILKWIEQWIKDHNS
UniProt P49189: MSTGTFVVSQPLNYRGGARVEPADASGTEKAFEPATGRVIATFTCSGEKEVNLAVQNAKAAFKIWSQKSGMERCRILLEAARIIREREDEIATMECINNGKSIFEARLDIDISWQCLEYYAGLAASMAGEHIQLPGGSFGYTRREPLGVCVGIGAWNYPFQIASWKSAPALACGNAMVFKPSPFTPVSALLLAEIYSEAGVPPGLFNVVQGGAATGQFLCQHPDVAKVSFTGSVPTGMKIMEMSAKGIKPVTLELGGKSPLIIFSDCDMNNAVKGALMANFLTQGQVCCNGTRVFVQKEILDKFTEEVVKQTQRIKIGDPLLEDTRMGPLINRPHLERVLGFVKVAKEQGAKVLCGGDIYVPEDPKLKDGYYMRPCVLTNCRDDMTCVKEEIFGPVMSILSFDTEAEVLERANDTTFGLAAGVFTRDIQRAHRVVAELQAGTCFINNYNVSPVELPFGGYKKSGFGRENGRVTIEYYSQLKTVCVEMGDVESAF
UniProt Q13740: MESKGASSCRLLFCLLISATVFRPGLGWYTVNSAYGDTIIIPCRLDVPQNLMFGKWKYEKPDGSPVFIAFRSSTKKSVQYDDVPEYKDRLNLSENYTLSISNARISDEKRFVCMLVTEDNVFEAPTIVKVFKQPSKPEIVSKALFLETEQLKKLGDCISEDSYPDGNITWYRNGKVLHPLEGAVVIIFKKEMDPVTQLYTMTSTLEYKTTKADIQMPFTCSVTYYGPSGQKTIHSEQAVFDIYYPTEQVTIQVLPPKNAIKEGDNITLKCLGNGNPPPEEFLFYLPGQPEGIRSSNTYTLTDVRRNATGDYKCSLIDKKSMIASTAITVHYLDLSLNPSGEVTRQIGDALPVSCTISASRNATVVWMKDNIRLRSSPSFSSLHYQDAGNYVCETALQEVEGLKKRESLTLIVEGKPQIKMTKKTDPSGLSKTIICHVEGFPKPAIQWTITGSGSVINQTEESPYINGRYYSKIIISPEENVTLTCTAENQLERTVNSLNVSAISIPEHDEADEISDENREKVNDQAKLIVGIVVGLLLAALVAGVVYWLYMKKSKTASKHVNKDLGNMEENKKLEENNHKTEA
UniProt Q9NYG5, whole entry, looked up: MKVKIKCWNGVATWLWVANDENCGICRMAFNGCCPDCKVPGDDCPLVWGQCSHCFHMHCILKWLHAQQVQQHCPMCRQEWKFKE

Compound: CC1Cc2ccccc2N1C(=O)C1CCCN(C1)C(=O)CCl (mixture of isomers) [TRIM25 ligand 11 (diastereomer mixture)]
Experiment: probe-labelled cysteine peptide fold change vs DMSO (competition) (log2 fold change); higher = less target engagement (more negative = stronger competition)
Settings: THP-1, incubation time: 4 h
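Further: competitive chemoproteomic profiling in live THP-1 cells with an iodoacetamide desthiobiotin (IA-DTB) probe, comparing probe-labelled peptide intensities in compound-treated cells against DMSO-treated controls.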

Row | Target | probe-labelled cysteine peptide fold change (10 µM) | probe-labelled cysteine peptide fold change (50 µM)
1 | ANAPC1_Q9H1A4_1074_LLQLCQR (UniProt Q9H1A4) | -0.106 | -0.00236
2 | ALDH3A2_P51648_220+226_DCDLDIVCR (UniProt P51648) | 0.473 | 0.274
3 | ALDOA_P04075_178_YASICQQNGIVPIVEPEILPDGDHDLKR (UniProt P04075) | 0.0218 | 0.164
4 | ALDH16A1_Q8IZ83_350_GAAACDLVQR (UniProt Q8IZ83) | -0.0523 | 0.0166
5 | ALOX5_P09917_249_CTELPEK (UniProt P09917) | 0.00802 | 0.134
6 | AK2_P54819_92_NLETPLCK (UniProt P54819) | -0.0944 | -0.0953
7 | ANAPC7_Q9UJX3_509_NALANQSDCVLHR (UniProt Q9UJX3) | 0.133 | 0.036
8 | ALKBH4_Q9NXW9_227_SVLCQEVEVAIPLPAR (UniProt Q9NXW9) | -0.159 | 0.0301
9 | AKAP8_O43823_392+395_IQFACSVCK (UniProt O43823) | -0.0142 | 0.0345
10 | AIFM1_O95831_317_SITIIGGGFLGSELACALGR (UniProt O95831) | -0.11 | 0.0297
11 | AGL_P35573_399_LINYHQEQAVNCLLGNVFYER (UniProt P35573) | 0.0949 | 0.00508
12 | AKAP9_Q99996_2333+2340_DLETQIECLMSDQECVK (UniProt Q99996) | 0.226 | -0.234
13 | ANKFY1_Q9P2R3_34_CALLAAQANK (UniProt Q9P2R3) | 0.0634 | 0.0391
14 | AMPD2_Q01433_107_SLPGPAPCLK (UniProt Q01433) | -0.11 | -0.295
15 | ALDH18A1_P54886_88_GDECGLALGR (UniProt P54886) | -0.0756 | -0.0207
16 | AIP_O00170_78_FKLPVWETIVCTMR (UniProt O00170) | -0.126 | -0.225
17 | ALDOA_P04075_290_CPLLKPWALTFSYGR (UniProt P04075) | -0.469 | -0.435
18 | ANK3_Q12955_4233_LDDSPDQCR (UniProt Q12955) | -0.109 | 0.337
19 | AKR1B1_P15121_200_LIQYCQSK (UniProt P15121) | -0.018 | -0.0644
20 | AHNAK_Q09666_1833_GPFVEAEVPDVDLECPDAK (UniProt Q09666) | -0.0421 | -0.135
21 | AK6_Q9Y3D8_81_EGGVIVDYHGCDFFPER (UniProt Q9Y3D8) | 0.0956 | 0.161

Some values from the list.
probe-labelled cysteine peptide fold change (50 µM), ALKBH4_Q9NXW9_227_SVLCQEVEVAIPLPAR (UniProt Q9NXW9) reads 0.0301
probe-labelled cysteine peptide fold change (50 µM), ANKFY1_Q9P2R3_34_CALLAAQANK (UniProt Q9P2R3) reads 0.0391
probe-labelled cysteine peptide fold change (50 µM), ALOX5_P09917_249_CTELPEK (UniProt P09917) reads 0.134

(next part)

Row | Target | probe-labelled cysteine peptide fold change (10 µM) | probe-labelled cysteine peptide fold change (50 µM)
22 | ALDH9A1_P49189_288+289_GALMANFLTQGQVCCNGTR (UniProt P49189) | 0.121 | 0.112
23 | AHCY_P23526_421_QAQYLGMSCDGPFKPDHYR (UniProt P23526) | -0.0187 | -0.0741
24 | ANAPC1_Q9H1A4_988_QACEGNLPK (UniProt Q9H1A4) | -0.07 | -0.129
25 | AHCTF1_Q8WYP5_354_LLGCQSIEK (UniProt Q8WYP5) | -0.0355 | -0.209
26 | ANKFY1_Q9P2R3_34_RCALLAAQANK (UniProt Q9P2R3) | 0.0574 | 0.185
27 | ALDH9A1_P49189_150_REPLGVCVGIGAWNYPFQIASWK (UniProt P49189) | -0.154 | -0.0918
28 | AGL_P35573_767_EVPQMCIPGKIEEVVLEAR (UniProt P35573) | -0.407 | -0.231
29 | AMACR_Q9UHK6_293_AEWCQIFDGTDACVTPVLTFEEVVHHDHNK (UniProt Q9UHK6) | 0.181 | 0.0895
30 | ALCAM_Q13740_113_FVCMLVTEDNVFEAPTIVK (UniProt Q13740) | 0.0437 | -4.56e-05
31 | ANAPC11_Q9NYG5_51_VPGDDCPLVWGQCSHCFHMHCILK (UniProt Q9NYG5) | 0.248 | 0.203
32 | ALDH4A1_P30038_95_FCYADK (UniProt P30038) | 0.00112 | 0.0311
33 | ALKBH5_Q6P6C2_378_SYESSEDCSEAAGSPARK (UniProt Q6P6C2) | -0.239 | -0.147
34 | AMPD3_Q01432_691_LSTCDLCEIAR (UniProt Q01432) | 0.0566 | 0.0054
35 | AKAP17A_Q02040_563_GIPACEQNVSR (UniProt Q02040) | -0.0813 | -0.314
36 | ANAPC2_Q9UJX6_421_VLDPSMVILEVACEPIRR (UniProt Q9UJX6) | 0.159 | -0.011
37 | AHCYL1_O43865_395_NSCIVCNMGHSNTEIDVTSLR (UniProt O43865) | 0.0985 | -0.0547
38 | AGPAT2_O15120_92_PCVIVSNHQSILDMMGLMEVLPER (UniProt O15120) | 0.37 | -0.381
39 | ALDH18A1_P54886_546_EAVQLVNTREEVEDLCR (UniProt P54886) | 0.16 | 0.103
40 | ALCAM_Q13740_313_CSLIDKK (UniProt Q13740) | -0.0402 | 0.107
41 | ALDH9A1_P49189_267_SPLIIFSDCDMNNAVK (UniProt P49189) | 0.298 | 0.198
42 | AIP_O00170_90_EGEIAQFLCDIK (UniProt O00170) | -0.0698 | 0.00981
